Measured values: article PMC8326128
Results are given in words; binding and its absence hold for the method and conditions named. Some entries that bind do so weakly or less than the wild type.

Amino acid sequences for entries named in this document (tags omitted). A change or cut given only in a name is not applied to a line headed by its entry. Chains listed by the source or under a name are the forms on record and can include a tag or linker. Residues count along the entry.
MyRF_(S587A) (mouse MyRF residues 351-717, noncleavable mutant) (Q3UR85-3, form named): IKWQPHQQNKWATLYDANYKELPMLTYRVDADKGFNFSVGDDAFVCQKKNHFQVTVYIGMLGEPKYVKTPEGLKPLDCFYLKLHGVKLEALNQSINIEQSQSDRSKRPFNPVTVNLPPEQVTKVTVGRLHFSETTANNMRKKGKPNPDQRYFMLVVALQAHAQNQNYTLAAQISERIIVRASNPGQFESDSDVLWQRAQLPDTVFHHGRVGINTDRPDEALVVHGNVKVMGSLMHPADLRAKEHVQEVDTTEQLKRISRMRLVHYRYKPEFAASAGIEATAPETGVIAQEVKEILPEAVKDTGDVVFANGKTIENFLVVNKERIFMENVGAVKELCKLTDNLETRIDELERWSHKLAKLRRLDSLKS

Molecular target: MyRF_(S587A) (mouse MyRF residues 351-717, noncleavable mutant) (mouse) (UniProt Q3UR85)
Test: crystal structure; sitting drop vapor diffusion, 16 °C, 8% PEG6000, 0.1 M cacodylate pH 5.5 or 10% PEG6000, 1 M LiCl, 0.1 M MES pH 6.5; space group P321, 2.4 Å; trimer generated by crystal symmetry; protein split into DBD and stalk-ICA fragments during crystallization; both purified

For “MyRF_(S587A) (mouse MyRF residues 351-717, noncleavable mutant) (from UniProt Q3UR85-3 351-717) (domain or fragment)”, the binding was “binds”.
